# The structures given here were assigned with low confidence; some may be wrong.
# Chains of the proteins cited; added tags and fusions are not shown.
# UniProt P30542, whole entry: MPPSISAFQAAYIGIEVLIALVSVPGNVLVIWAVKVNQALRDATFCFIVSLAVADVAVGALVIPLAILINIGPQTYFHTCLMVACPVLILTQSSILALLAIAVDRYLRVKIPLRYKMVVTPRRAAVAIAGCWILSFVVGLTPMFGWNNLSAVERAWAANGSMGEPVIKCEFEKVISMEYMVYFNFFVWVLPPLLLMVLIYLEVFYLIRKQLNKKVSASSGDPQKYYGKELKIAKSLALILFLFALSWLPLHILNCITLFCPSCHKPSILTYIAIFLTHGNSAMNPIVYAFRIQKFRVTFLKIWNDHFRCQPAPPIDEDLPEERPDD
# How the values were obtained:
# HA1 adenosine receptor = HA1 adenosine receptor (Homo sapiens, UniProt P30542); assay: Human adenosine A1 receptor affinity (Ki hA1); type: binding; details: read-out: Ki HA1; affinity to human adenosine A1 receptor
# [1] = molecular target: human adenosine A2A receptor (Homo sapiens, UniProt P29274); assay: Human adenosine A2A receptor [3H]-SCH-58261 binding assay; details: for selectivity (A1/A2a): calculated ratio of the affinity to the HA1 receptor to the HA2a receptor; for Ki: read-out: Ki HA2A, affinity to human adenosine A2A receptor
SMILES,Ki (HA1 adenosine receptor),selectivity (A1/A2a) [1],Ki [1]
Nc1cc(C(=O)NCc2ccccc2Cl)cc2nc(-c3ccc(Cl)o3)nn12,0.0912 µM,2.5,0.0358 µM
Nc1cc(C(=O)NCc2ccccc2Br)cc2nc(-c3ccc(Cl)o3)nn12,0.0706 µM,2.7,0.0265 µM
CCN(C)C(=O)c1cc(N)n2nc(-c3nccs3)nc2c1,6.06 µM,38.6,0.157 µM

# Reference: patent US6506772B1, “Substituted [1,2,4]triazolo[1,5a]pyridine derivatives with activity as adenosine receptor ligands” (Hoffmann-La Roche Inc., priority 2000, dated 2003)
